Results are given in words; binding and its absence hold for the method and conditions named. In cells and extracts the contact can be indirect. Some results given as binding are weak or reduced against the parent protein; the word gives no strength.
Molecular target: APP 751 (amyloid precursor protein isoform 751) (UniProt P05067)
Experiment: co-immunoprecipitation from HEK293FT lysates, western blot

- binding: binds
B1: CNTN4 #10 (full length, Ig1 to FN4) (receptor, UniProt Q8IWV2 19-1000, looked up)
chain: DDSTLHGPIFIQEPSPVMFPLDSEEKKVKLNCEVKGNPKPHIRWKLNGTDVDTGMDFRYSVVEGSLLINNPNKTQDAGTYQCTATNSFGTIVSREAKLQFAYLDNFKTRTRSTVSVRRGQGMVLLCGPPPHSGELSYAWIFNEYPSYQDNRRFVSQETGNLYIAKVEKSDVGNYTCVVTNTVTNHKVLGPPTPLILRNDGVMGEYEPKIEVQFPETVPTAKGATVKLECFALGNPVPTIIWRRADGKPIARKARRHKSNGILEIPNFQQEDAGLYECVAENSRGKNVARGQLTFYAQPNWIQKINDIHVAMEENVFWECKANGRPKPTYKWLKNGEPLLTRDRIQIEQGTLNITIVNLSDAGMYQCLAENKHGVIFSNAELSVIAVGPDFSRTLLKRVTLVKVGGEVVIECKPKASPKPVYTWKKGRDILKENERITISEDGNLRIINVTKSDAGSYTCIATNHFGTASSTGNLVVKDPTRVMVPPSSMDVTVGESIVLPCQVTHDHSLDIVFTWSFNGHLIDFDRDGDHFERVGGQDSAGDLMIRNIQLKHAGKYVCMVQTSVDRLSAAADLIVRGPPGPPEAVTIDEITDTTAQLSWRPGPDNHSPITMYVIQARTPFSVGWQAVSTVPELIDGKTFTATVVGLNPWVEYEFRTVAANVIGIGEPSRPSEKRRTEEALPEVTPANVSGGGGSKSELVITWETVPEELQNGRGFGYVVAFRPYGKMIWMLTVLASADASRYVFRNESVHPFSPFEVKVGVFNNKGEGPFSPTTVVYSAEEEPTKPPASIFARSLSATDIEVFWASPLEKNRGRIQGYEVKYWRHEDKEENARKIRTVGNQTSTKITNLKGSVLYHLAVKAYNSAGTGPSSATVNVTTRKPPPSQPPGNIIWNSSDSKIILNWDQVKALDNESEVKGYKVLYRWNRQSSTSVIETNKTSVELSLPFDEDYIIEIKPFSDGGDGSSSEQIRIPKISNAYARGS
